PubChem BioAssay AID602196 | INSERM, 2012

- Assay: 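Modifiers of cisplatin sensitivity in A549 cells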
- System: human A549 lung cancer cells
- Reagents: siRNA pair against human genes
- Timing: 48 h transfection before cisplatin; time from cisplatin to read-out not stated
- Conditions: cisplatin at a dose killing half of control-siRNA cells; exact dose and duration not given
- Measured: 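Cisplatin cell death as a shift from the 50% death seen with control siRNA; siRNAs toxic or growth-blocking alone scored 0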
- Direction: two-siRNA summed score (-2 to +2): higher = both siRNAs protect from cisplatin killing; -2 means both sensitise; mean protection from cisplatin (shift in death) and protection from cisplatin (shift in death), siRNA C and protection from cisplatin (shift in death), siRNA D: higher = protection from cisplatin killing
- Hit rule: 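Each siRNA scores 0 if harmful alone by LDH or WST-1, otherwise +1 if it reduces and -1 if it increases cisplatin killing; a gene is active when both siRNAs agree (sum +2 or -2)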
- Calls: active = both siRNAs shift cisplatin killing the same way; inactive = no consistent shift, or siRNA harmful alone
The deposit covers about 23,000 reagents; below is a part drawn at random. Of all reagents, 455 (2%) got an active call. 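Active includes both protection and sensitisation; some change values fall well beyond the stated -50 to +50 range.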 Reagent sequences are not shown. The record does not give: the amount of reagent.

target	two-siRNA summed score (-2 to +2)	mean protection from cisplatin (shift in death) (%)	protection from cisplatin (shift in death), siRNA C (%)	protection from cisplatin (shift in death), siRNA D (%)	Call
LOC442277	0	5.5	8.8	2.1	inactive
SECISBP2	-1	-3.6	-22.7	15.4	inactive
LOC440936	0	4.2	6.1	2.4	inactive
FLJ00310	0	9.7	7.9	11.5	inactive
BEAN1	1	8.1	22.1	-5.8	inactive
ETS2	1	21.9	27.9	15.9	inactive
GDF9	-1	-7	0.1	-14	inactive
LOC389435	0	33	31.5	34.6	inactive
MRPL48	0	9	-4.7	22.7	inactive
DNTTIP1	1	9.8	15.1	4.5	inactive
LOC442276	0	10.8	11.1	10.5	inactive
EDARADD	1	18.2	40.1	-3.6	inactive
LOC440332	0	17.2	13.3	21.1	inactive
CYREN	0	-3.3	-10.2	3.5	inactive
IL12RB2	0	-7.8	-17.5	1.8	inactive
CFB	0	1.1	-0.9	3	inactive
GRIN1	0	-7.5	-12.9	-2.2	inactive
UQCRC2	0	-3.1	-7.9	1.7	inactive
LOC442550	1	14.7	6.9	22.4	inactive
LOC388144	0	15.5	18.8	12.2	inactive
CST9	1	12.3	6.9	17.7	inactive
CHCHD7	-1	-7.9	-15.9	0.1	inactive
EDA	0	-7.7	-5.5	-9.8	inactive
CYP2S1	0	10.3	21.2	-0.6	inactive
ZNF628	0	3.3	-6.4	12.9	inactive
ARNT2	0	-14.5	-10.2	-18.8	inactive
LOC389814	1	12.9	5	20.8	inactive
FASTKD1	0	1.5	6.1	-3	inactive
UBE2NL	0	9.5	8.9	10	inactive
CD177	0	6.4	-3.9	16.8	inactive
LOC440155	2	17.9	16	19.8	active
ENPP6	0	1.6	2.5	0.8	inactive
GLMP	0	-2.6	-11.7	6.5	inactive
KMT5A	1	10	15.4	4.6	inactive
TOP1MT	0	-0.9	4	-5.8	inactive
MROCKI	0	0	-6.8	6.8	inactive
KRTAP4-1	0	4.8	0.5	9.1	inactive
DDX59	0	7.4	-0.6	15.5	inactive
CFAP298	0	6.6	9.1	4.1	inactive
WNT6	2	14.9	19.5	10.2	active
OR1F1	-1	-2.1	11.7	-15.9	inactive
PEX13	0	-1.8	-15.7	12.1	inactive
MTMR6	0	-0.1	-2.6	2.3	inactive

In a second layout: entries from further up
{"target":"CFB","two-siRNA summed score (-2 to +2)":0,"mean protection from cisplatin (shift in death) (%)":1.1,"protection from cisplatin (shift in death), siRNA C (%)":-0.9,"protection from cisplatin (shift in death), siRNA D (%)":3,"Call":"inactive"}
{"target":"GRIN1","two-siRNA summed score (-2 to +2)":0,"mean protection from cisplatin (shift in death) (%)":-7.5,"protection from cisplatin (shift in death), siRNA C (%)":-12.9,"protection from cisplatin (shift in death), siRNA D (%)":-2.2,"Call":"inactive"}
{"target":"UQCRC2","two-siRNA summed score (-2 to +2)":0,"mean protection from cisplatin (shift in death) (%)":-3.1,"protection from cisplatin (shift in death), siRNA C (%)":-7.9,"protection from cisplatin (shift in death), siRNA D (%)":1.7,"Call":"inactive"}
{"target":"LOC442550","two-siRNA summed score (-2 to +2)":1,"mean protection from cisplatin (shift in death) (%)":14.7,"protection from cisplatin (shift in death), siRNA C (%)":6.9,"protection from cisplatin (shift in death), siRNA D (%)":22.4,"Call":"inactive"}
{"target":"LOC388144","two-siRNA summed score (-2 to +2)":0,"mean protection from cisplatin (shift in death) (%)":15.5,"protection from cisplatin (shift in death), siRNA C (%)":18.8,"protection from cisplatin (shift in death), siRNA D (%)":12.2,"Call":"inactive"}
{"target":"CST9","two-siRNA summed score (-2 to +2)":1,"mean protection from cisplatin (shift in death) (%)":12.3,"protection from cisplatin (shift in death), siRNA C (%)":6.9,"protection from cisplatin (shift in death), siRNA D (%)":17.7,"Call":"inactive"}
{"target":"CHCHD7","two-siRNA summed score (-2 to +2)":-1,"mean protection from cisplatin (shift in death) (%)":-7.9,"protection from cisplatin (shift in death), siRNA C (%)":-15.9,"protection from cisplatin (shift in death), siRNA D (%)":0.1,"Call":"inactive"}
{"target":"EDA","two-siRNA summed score (-2 to +2)":0,"mean protection from cisplatin (shift in death) (%)":-7.7,"protection from cisplatin (shift in death), siRNA C (%)":-5.5,"protection from cisplatin (shift in death), siRNA D (%)":-9.8,"Call":"inactive"}
{"target":"CYP2S1","two-siRNA summed score (-2 to +2)":0,"mean protection from cisplatin (shift in death) (%)":10.3,"protection from cisplatin (shift in death), siRNA C (%)":21.2,"protection from cisplatin (shift in death), siRNA D (%)":-0.6,"Call":"inactive"}
{"target":"ZNF628","two-siRNA summed score (-2 to +2)":0,"mean protection from cisplatin (shift in death) (%)":3.3,"protection from cisplatin (shift in death), siRNA C (%)":-6.4,"protection from cisplatin (shift in death), siRNA D (%)":12.9,"Call":"inactive"}

Further records follow:
target	two-siRNA summed score (-2 to +2)	mean protection from cisplatin (shift in death) (%)	protection from cisplatin (shift in death), siRNA C (%)	protection from cisplatin (shift in death), siRNA D (%)	Call
ZNF688	0	8.7	21.6	-4.3	inactive
DACT1	-1	-6.7	0.5	-13.8	inactive
TRDMT1	-1	-7.1	-14.8	0.5	inactive
ATP5F1A	0	1.2	-2.5	4.9	inactive
CCHCR1	0	-3	-10.6	4.5	inactive
EVPL	0	-4.5	-2.5	-6.6	inactive
LETM2	0	3.7	5.9	1.4	inactive
RFWD3	0	-2.1	-4.6	0.5	inactive
OXTR	1	15.2	24.3	6.1	inactive
MAB21L4	-1	-9.1	-23.2	5	inactive
TMEM267	0	5.3	-3.6	14.1	inactive
TRPC5	0	-5.6	9.7	-20.9	inactive
ZNF787	0	4.6	4.3	4.9	inactive
TTC8	1	14.3	9	19.7	inactive
LOC442074	1	7.4	3.5	11.4	inactive
LOC442698	0	18.7	27.5	9.9	inactive
LOC387942	0	2.7	7.4	-2.1	inactive
SPIN3	0	-0.4	7	-7.9	inactive
KLK7	0	-11.4	-17.5	-5.3	inactive
FLJ90680 (retired record)	0	3.4	3.7	3.2	inactive
DMRTC1	0	5.3	9.9	0.7	inactive
B3GNT4	0	-4.1	-4.1	-4.1	inactive
LOC389403	1	8.8	-6.3	23.9	inactive
LAIR2	0	1.8	-2.5	6.2	inactive
LHFPL4	0	6.9	-0.2	14.1	inactive
CITED1	-1	-15.9	-26.5	-5.4	inactive
ZNF683	0	6.4	-2.8	15.7	inactive
TWF2	0	1.4	-6.8	9.6	inactive
LOC440793	0	13.6	8.9	18.3	inactive
POMC	-1	-17	-33.3	-0.7	inactive
